PubChem BioAssay AID1259254, NCATS – 2017
Screen: 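Genome-wide screen for genes that prevent DNA re-replication in cancer cells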 (primary screen). Cells: human HCT116 colorectal cancer cells. Reagents: single siRNA against human genes. Duration: 3 days. Read-out: 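Nuclei stained with Hoechst and imaged; cell-cycle phase assigned by DNA content; G2 share scaled per plate, non-targeting siRNA 0%, GMNN siRNA 100%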. Reading the numbers: G2 robust z-score: higher = more G2 cells, more excess DNA replication. Call rule: 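Active siRNAs have a G2 robust z of 5 or more median absolute deviations over the median, which in these data means about 38% or higher of GMNN control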.
This is an unselected part of about 59,000 reagents tested. Of all reagents, about 1,550 (2.6%) are marked active. 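G2 share is only a proxy for re-replication; each gene was hit by three separate siRNAs, and active genes were retested.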 Reagents against one gene are numbered here. Further read-outs or replicates are left out here. The record does not give: the amount of reagent.

GSTCD #1 | G2 robust z-score = 0.272; Call = inactive
GSTCD #2 | G2 robust z-score = 1.19; Call = inactive
GSTCD #3 | G2 robust z-score = 3.62; Call = inactive
GML #1 | G2 robust z-score = -1.05; Call = inactive
GML #2 | G2 robust z-score = 0.0709; Call = inactive
GML #3 | G2 robust z-score = 0.59; Call = inactive
LINC02453 #1 | G2 robust z-score = 0.998; Call = inactive
LINC02453 #2 | G2 robust z-score = -0.47; Call = inactive
LINC02453 #3 | G2 robust z-score = 0.227; Call = inactive
KLHL22 #1 | G2 robust z-score = -0.65; Call = inactive
KLHL22 #2 | G2 robust z-score = 1.13; Call = inactive
KLHL22 #3 | G2 robust z-score = 0.969; Call = inactive
EIF3H #1 | G2 robust z-score = -0.0662; Call = inactive
EIF3H #2 | G2 robust z-score = -0.673; Call = inactive
EIF3H #3 | G2 robust z-score = -0.156; Call = inactive
SFMBT2 #1 | G2 robust z-score = 1.92; Call = inactive
SFMBT2 #2 | G2 robust z-score = -0.973; Call = inactive
SFMBT2 #3 | G2 robust z-score = -0.701; Call = inactive
HSD52 #1 | G2 robust z-score = -1.29; Call = inactive
HSD52 #2 | G2 robust z-score = 0.993; Call = inactive
HSD52 #3 | G2 robust z-score = -0.518; Call = inactive
ZNF584 #1 | G2 robust z-score = -0.816; Call = inactive
ZNF584 #2 | G2 robust z-score = 0.577; Call = inactive
ZNF584 #3 | G2 robust z-score = 0.397; Call = inactive

Already shown: 4 of the entries above.
GSTCD #2 | G2 robust z-score = 1.19; Call = inactive
GSTCD #3 | G2 robust z-score = 3.62; Call = inactive
GML #1 | G2 robust z-score = -1.05; Call = inactive
GML #2 | G2 robust z-score = 0.0709; Call = inactive
